Test results reported in PubChem BioAssay AID504467 (National Center for Advancing Translational Sciences (NCATS), 2011).
The whole screen tested about 330,000 compounds, of which about 7,700 (2.3%) were called active. The inconclusive results got no clear call from the source; some entries with a clear call stand among them for comparison. Calls come from the whole dose curve; as a rule, active = well fitted inhibition curve with a large enough effect; inconclusive = small, poorly fitted or top-dose-only effect, or effect the other way; inactive = flat fitted curve, though single readings scatter. Potencies beside an inconclusive call are fits to weak or partial responses and may not hold up.

assay: qHTS screen for small molecules that inhibit ELG1-dependent DNA repair in human embryonic kidney (HEK293T) cells expressing luciferase-tagged ELG1; conditions: HEK293T ELG1-luciferase reporter, luminescence, 16 h, DNA damage induced by 5-fluorouridine; series mostly up to 46.1 µM; note: nearly all actives have a fitted effect of over 55% in size
Method in brief: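 Luminescence from the luciferase reporter, measured 30 min after ONE-Glo reagent at room temperature, was the read-out. Beforehand, 2,000 cells per well were exposed for 16 hr at 37 °C to 5-fluorouridine together with compound or vehicle.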
Potency is the fitted concentration of half-maximal effect.

SMILES | Potency
Cc1cc(NC(=O)CSc2nc(-c3ccco3)cc(C(F)(F)F)n2)no1 | inconclusive: 0.366 µM [inhibitor, partial curve, poor fit]
O=C(CNC(=O)c1ccc(-c2ccccc2)cc1)Nc1cccc(CO)c1 | inconclusive: 29.1 µM [activator, single point]
CC1CCN(c2c(NCC3CCC(C(=O)Nc4ccccn4)CC3)c(=O)c2=O)CC1 (stereo not given) | inconclusive: 7.31 µM [inhibitor, partial curve]
Cc1c(NC(=O)c2ccc3c4c(cccc24)CC3)c(=O)n(-c2ccccc2)n1C | inconclusive: 14.6 µM [inhibitor, partial curve, poor fit]
O=c1c2cn[nH]c2nc(SCc2cc(=O)n3cc(Br)ccc3n2)n1-c1ccc(Br)cc1 | inconclusive: 20.6 µM [inhibitor, single point]
O=C(Nc1ccc(F)cc1)N1CCCCCC1 | inconclusive: 20.6 µM [activator, partial curve, poor fit]
CC(C)(C)c1ccc(C(=O)NC(CC(=O)O)c2ccc(OC3CCCC3)cc2)cc1 (stereo not given) | inactive
CCOc1ccc2oc(C(=O)OCC(=O)NCc3ccc(OC)cc3)c(C)c2c1 | inconclusive: 35.5 µM [inhibitor, single point]
CCN(C(=O)CSc1nc2cc(C(=O)OC)ccc2c(=O)n1Cc1ccco1)c1cccc(C)c1 | active: 7.31 µM
O=C(Nc1nnc(Cc2ccccc2)s1)c1ccccc1 | inconclusive: 6.51 µM [activator, partial curve]
CNC(=O)/C(C#N)=C/c1c(N2CCCCCC2)nc2c(C)cccn2c1=O | inactive
Cc1ccc(-c2cnn(-c3cccc(C(F)(F)F)c3)c2N)cc1 | inconclusive: 6.51 µM [activator, single point]
c1ccc(C2=Nn3c(nnc3-c3ccco3)SC2)cc1 | inconclusive: 20.6 µM [activator, single point]
C/C(=N\NC(=O)COc1ccccc1)c1ccc(O)cc1 | inconclusive: 20.6 µM [activator, partial curve]
Cc1ccc(NC(=O)Cn2cnc3cc([N+](=O)[O-])ccc3c2=O)cc1 | inactive
Cc1ccc(-c2nnn(CC(=O)N3CCCc4ccccc43)n2)cc1 | inactive
O=C(NC1CCCc2ccccc21)C1CCN(c2nnc(-n3cccc3)s2)CC1 (stereo not given) | inconclusive: 25.9 µM [inhibitor, single point]
Cc1cc(/C=C2\SC(=S)NC2=O)cc(C)c1O | inconclusive: 29.1 µM [activator, single point]
CC1CCCC(NC(=O)COC(=O)[C@@H](NC(=O)c2ccc(F)cc2)C(C)C)C1C (stereo not given in full) | inactive
CCCCC(=O)NC(=S)Nc1ccc(Cl)c(C(=O)O)c1 | inactive
O=S(=O)(NCc1csc(-c2cccnc2)n1)c1ccc2c(c1)OCCO2 | inconclusive: 32.6 µM [inhibitor, single point]
O=C(/C=C/c1ccccc1)Oc1cccc2cccnc12 | inactive
CCOC(=O)Cc1csc(NC(=O)CSc2ncnc3c2cnn3-c2ccc(OC)cc2)n1 | inconclusive: 25.9 µM [inhibitor, single point]

Quoted from the listing (nine entries):
SMILES | Potency
Cc1ccc(-c2cnn(-c3cccc(C(F)(F)F)c3)c2N)cc1 | inconclusive: 6.51 µM [activator, single point]
c1ccc(C2=Nn3c(nnc3-c3ccco3)SC2)cc1 | inconclusive: 20.6 µM [activator, single point]
C/C(=N\NC(=O)COc1ccccc1)c1ccc(O)cc1 | inconclusive: 20.6 µM [activator, partial curve]
Cc1ccc(NC(=O)Cn2cnc3cc([N+](=O)[O-])ccc3c2=O)cc1 | inactive
Cc1ccc(-c2nnn(CC(=O)N3CCCc4ccccc43)n2)cc1 | inactive
O=C(NC1CCCc2ccccc21)C1CCN(c2nnc(-n3cccc3)s2)CC1 (stereo not given) | inconclusive: 25.9 µM [inhibitor, single point]
Cc1cc(/C=C2\SC(=S)NC2=O)cc(C)c1O | inconclusive: 29.1 µM [activator, single point]
CC1CCCC(NC(=O)COC(=O)[C@@H](NC(=O)c2ccc(F)cc2)C(C)C)C1C (stereo not given in full) | inactive
CCCCC(=O)NC(=S)Nc1ccc(Cl)c(C(=O)O)c1 | inactive

(cont.)

SMILES | Potency
COc1ccc(-c2cc(C(=O)Nc3ccccc3SC)no2)cc1 | inconclusive: 11.6 µM [activator, partial curve]
O=C(Nc1ccccc1NC(=O)NC1CCCCC1)NC1CCCCC1 | inactive
Nc1ncnc(Oc2cccc3cccnc23)c1[N+](=O)[O-] | inconclusive: 25.9 µM [inhibitor, partial curve, poor fit]
CC(=NCCc1ccccc1)C1=C(O)CCC1=O | inconclusive: 20.6 µM [activator, single point]
Cc1nn(CC2CC2)c(=O)n1N(C)c1ncc(C(F)(F)F)cc1Cl | inconclusive: 6.51 µM [inhibitor, single point]
COC(=O)c1ccc2c(=O)n(CCN3CCOCC3)c(SCC(=O)Nc3ccccc3Cl)nc2c1 | inactive
CCCNC(=O)C1CCN(c2ccc(S(=O)(=O)N3CCOCC3)cc2Cl)CC1 | inconclusive: 20.6 µM [inhibitor, partial curve]
N/C(=N\c1nc2c(c(=O)[nH]1)CCC2)Nc1ccccc1 | inconclusive: 23.1 µM [activator, partial curve, poor fit]
Nc1ccc2nc(CCCCCCCCc3nc4ccc(N)cc4[nH]3)[nH]c2c1 | inactive
COC(=O)C1=CN(c2cccc(C(F)(F)F)c2)C=C(C(=O)OC)C1c1ccc(O)c(OC)c1 | inconclusive: 23.1 µM [inhibitor, partial curve]
O=C1C2C3C=CC(C3)C2C(=O)N1c1ccccc1 (stereo not given) | inactive
CC(=O)Nc1nnc(COc2ccc(Cl)cc2)s1 | inconclusive: 18.3 µM [activator, partial curve]
Cc1nc2c(Br)cc(Br)cc2cc1O | inconclusive: 29.1 µM [inhibitor, single point]
CC1(C)CC(=O)C=C(C(=O)N2CCCC(CCC(=O)NCc3ccccc3F)C2)O1 (stereo not given) | inconclusive: 16.4 µM [activator, partial curve, poor fit]
COc1cccc(-c2nc(Cc3ccc(OC)c(OC)c3)no2)c1 | inconclusive: 20.6 µM [inhibitor, single point]
Cc1ccc(-c2cc(-c3ccccc3)nc(N)c2C#N)o1 | inconclusive: 20.6 µM [activator, single point]
COCC(C)NC(=O)C(C)Oc1ccccc1 (stereo not given) | inactive
O=C(COc1ccc2c(-c3ccccc3)cc(=O)oc2c1)NCc1ccccn1 | inactive
CO/C([O-])=N/c1c[n+](-c2ccc(Cl)cc2)no1 | inconclusive: 32.6 µM [activator, partial curve, poor fit]
O=C(Cc1ccccc1)N/N=C/c1ccccc1F | inconclusive: 16.4 µM [activator, single point]
Cc1cccc(C2=N/C(=C\c3cccs3)C(=O)O2)c1 | inactive
CCC(CC)C(=O)Nc1ccc(Sc2ccc([N+](=O)[O-])cc2)cc1 | inconclusive: 18.4 µM [inhibitor, single point]
